{"source": "patent US20220184184A1", "about": "(Novo Nordisk A/S, priority 2019, published 2022)", "assay": "general procedure: Fmoc solid-phase peptide synthesis; 2-Chlorotrityl resin 100-200 mesh […] (also […]); TCTU / N,N-diisopropylethylamine", "details": "late stage modification step, TFA salt", "data": [{"substance": "Boc-Lys(Boc)-OEG3-benzaldehyde", "values": [{"measurement": "step yield", "value": 99, "unit": "%"}]}]}
